According to PubChem BioAssay AID1347076 (National Center for Advancing Translational Sciences (NCATS), 2019):
In all, about 400,000 compounds went through this assay and about 13,000 (3.2%) were called active. This list was built around the results that the source calls inconclusive (neither active nor inactive); the mix of calls is not that of the screen. Calls come from the whole dose curve; as a rule, active = well fitted cell-killing curve with a large enough effect; inconclusive = small, poorly fitted or top-dose-only effect, or effect the other way; inactive = flat fitted curve, though single readings scatter. A potency beside an inconclusive call is a rough fit, not a confirmed value.

test: qHTS assay for MDR1-selective chemotherapeutics: Primary screen using the drug-selected MDR subline cells KB-V1; details: KB-V1 MDR cells viability, CellTiter-Glo, 72 h; activity change, negative = cytotoxicity: at 46.1 µM (top of the series); note: nearly all actives have a fitted effect of over 60% in size
Outline: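 Drug-selected KB-V1 cells, grown in DMEM lacking phenol red with 10% FBS, receive compound titrations; after three days at 37 degrees C, surviving cell ATP is quantified by CellTiter-Glo luminescence and responses normalized and curve-fitted.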
% is set by controls: 0 for no effect and ±100 for the full control effect; potency is the fitted concentration of half-maximal effect.

SMILES | Potency | activity change, negative = cytotoxicity
CCCOC(=O)C(C)n1c(-c2ccccc2)nc2ccccc2c1=O (stereo not drawn) | inconclusive: 23.1 µM [rising, partial curve, poor fit] | 
CCOC(=O)CC1(CCc2ccccc2)Oc2ccccc2O1 |  | inactive: -7%
Cc1cc(Br)cn2c(Cc3cccc(F)c3)c(-c3ccc(Cl)cc3)nc12 | inconclusive: 29.1 µM [cytotoxic, single point] | 
CC1C(c2ccccc2)N(C)C(c2ccccc2)C(C)C1(O)C#Cc1ccccc1 (stereo not drawn) | inconclusive: 29.1 µM [cytotoxic, single point] | 
CC(Cc1cccs1)NC(=S)Nc1ccc(Cl)c(Cl)c1 (stereo not drawn) |  | inactive: -23.5%
O=C(Cc1ccc(Cl)cc1)Nc1ccccc1N1CCN(C(=O)c2ccccc2)CC1 | inconclusive: 32.6 µM [cytotoxic, single point] | 
CCc1nc2ccc(C(=O)N(C)CCN(C)C)cn2c1N(CC)C(=O)NCCc1ccccc1 |  | inactive: -11.4%
COc1ccccc1Cc1c(-c2ccco2)nc2c(C)cc(Br)cn12 | inconclusive: 29.1 µM [cytotoxic, single point] | 
Cc1ccc2cc(CCNC(=O)c3ccc(Br)o3)c(=O)[nH]c2c1 | active: 18.4 µM | 
Cc1nnc(NC(=O)C2CC(=O)N(c3ccc4c(c3)OCCO4)C2)s1 (stereo not drawn) | inconclusive: 20.6 µM [rising, single point] | 
O=C(CN(C(=O)c1csnn1)c1cccc2c1CCCC2)NCc1ccc(F)cc1 | inconclusive: 8.2 µM [cytotoxic, partial curve] | 
CCN1CCN(C(=O)c2cnn(-c3ccc(F)cc3F)c2C2CCN(C(=O)OC(C)(C)C)CC2)CC1 |  | inactive: 7.45%
CC1Cc2ccccc2N1S(=O)(=O)c1cccc(C(=O)N2CCN(c3ncccn3)CC2)c1 (stereo not drawn) | inconclusive: 16.4 µM [cytotoxic, partial curve, poor fit] | 
CCOC(=O)N1CCN(C(=O)C2CCCN(S(=O)(=O)c3ccc(C)cc3)C2)CC1 (stereo not drawn) | active: 3.66 µM | 
CN(C)S(=O)(=O)c1ccc(C(=O)N2CCCC2c2nc3ccccc3s2)cc1 (stereo not drawn) | inconclusive: 18.4 µM [cytotoxic, single point] | 
Cc1cc(C)cc(OCC(=O)Nc2ccc3c(c2)OCO3)c1 |  | inactive: -6.35%
COc1ccc(CCNc2ncnc3nc[nH]c23)cc1OC | inconclusive: 20.6 µM [cytotoxic, partial curve, poor fit] | 
CC1(C)CC(=O)C(C=NCCN2CCN(C(=O)NC34CC5CC(CC(C5)C3)C4)CC2)=C(O)C1 | inconclusive: 25.9 µM [cytotoxic, partial curve, poor fit] | 
COc1ccc(NS(=O)(=O)c2cc(C)ccc2C)cc1 |  | inactive: -15.3%
COC(=O)c1ccc(COc2cccc3c2CCN(Cc2cccc(C)c2)C3=O)o1 | active: 16.4 µM | 
C[C@H]1CCC(=O)N([C@H](CSc2ccc(Br)cc2)Cc2ccccc2)CC1 | inconclusive: 4.11 µM [cytotoxic, full curve] | 
O=C(Cc1ccc(Br)cc1)Nc1cccc(S(=O)(=O)N2CCCCC2)c1 | inconclusive: 29.1 µM [cytotoxic, single point] | 

SMILES | Potency | activity change, negative = cytotoxicity
CCN(CC(=O)NCc1ccc(F)cc1)C(=O)CN1CCN(c2cc(Cl)ccc2C)CC1 | inconclusive: 8.2 µM [cytotoxic, partial curve] | 
CC(C)(C)/C(O)=C/c1nc2ccccc2[nH]c1=O |  | inactive: -9.41%
CSCSC1=C(C#N)C(c2ccccc2Cl)C(C(C)=O)=C(C)N1 (stereo not drawn) | inconclusive: 16.4 µM [cytotoxic, single point] | 
CCCOc1ccc(-c2cn3ccccc3n2)cc1 | inconclusive: 25.9 µM [cytotoxic, single point] | 
O=C(CC1SC(N2CCCCC2)=NC1=O)Nc1cccc(C(=O)NCc2ccc(F)cc2)c1 (stereo not drawn) | inconclusive: 29.1 µM [rising, single point] | 
O=c1nc2ccccc2c2n1CC(CN1CCN(c3ccccc3F)CC1)N2 (stereo not drawn) | inconclusive: 29.1 µM [cytotoxic, single point] | 
CCCN(CCC)C(=O)c1cc(-c2ccc3c(c2)OCO3)nc2ccccc12 | active: 18.4 µM | 
CSc1ccc(CCNC(=O)CCc2nnc3ccc(N4CCCC4)nn23)cc1 |  | inactive: 0%
CCC(C(=O)Nc1cnccn1)c1ccccc1 (stereo not drawn) | inconclusive: 18.4 µM [cytotoxic, single point] | 
COc1ccc(-c2cc(C(=O)N(C)Cc3ccc(OC)c(OC)c3OC)c3ccccc3n2)cc1OC | inconclusive: 16.4 µM [cytotoxic, partial curve, poor fit] | 
Cc1oc(-c2cccc(Cl)c2)nc1CN1CCC(C(=O)N2CCN(c3ccccc3F)CC2)CC1 | inconclusive: 20.6 µM [cytotoxic, single point] | 
COCCCNc1ccnc2c(Cl)cccc12 | inconclusive: 9.2 µM [cytotoxic, partial curve] | 
Cc1sc2nc(C3CC3)nc(SCC(=O)NCc3ccco3)c2c1C | inconclusive: 8.2 µM [cytotoxic, partial curve] | 
CC(=O)Nc1cccc(C(=O)OCC(=O)N2CCN(C(=O)COC(=O)c3cccc(NC(C)=O)c3)CC2)c1 |  | inactive: -3.18%
COc1ccc(CCC(=O)Nc2ccc(Br)cn2)cc1 | inconclusive: 32.6 µM [cytotoxic, partial curve, poor fit] | 
Cc1nc(Cc2nnc(SCC(=O)N3c4ccccc4NC(=O)C3(C)C)o2)cs1 |  | inactive: -25.4%
O=C1[C@H]2[C@@H](c3ccc(F)cc3)N3C(=O)N(c4ccc(C(F)(F)F)cc4)C(=O)[C@@]3(Cc3ccccc3)[C@H]2C(=O)N1C1CCCCC1 | inconclusive: 20.6 µM [cytotoxic, single point] | 
COc1ccc(-c2cc(C(=O)Nc3c(F)cc(F)cc3Br)no2)cc1 | inconclusive: 29.1 µM [rising, single point] | 
Cc1cc(OCc2nnc(SCC(=O)O)n2-c2ccccc2)ccc1Cl | inconclusive: 18.4 µM [rising, partial curve, poor fit] | 
CN(C)c1ccc(/C=N\Nc2ccc([N+](=O)[O-])cc2[N+](=O)[O-])cc1Br |  | inconclusive: 84.7%
COc1ccc(S(=O)(=O)N2CCN(C(=O)c3ccc4ccccc4n3)CC2)cc1 | inconclusive: 29.1 µM [cytotoxic, single point] | 

A stretch taken from the entries so far, as a working copy:
SMILES | Potency | activity change, negative = cytotoxicity
CSCSC1=C(C#N)C(c2ccccc2Cl)C(C(C)=O)=C(C)N1 (stereo not drawn) | inconclusive: 16.4 µM [cytotoxic, single point] | 
CCCOc1ccc(-c2cn3ccccc3n2)cc1 | inconclusive: 25.9 µM [cytotoxic, single point] | 
